In patent US20260130928A1, “COMBINATION OF AKR1C3 ACTIVATED ANTICANCER PRODRUG COMPOUND AND ANALGESIC DRUG FOR TREATING CANCER PATIENTS ACCOMPANIED BY PAIN” (ASCENTAWITS PHARMACEUTICALS, LTD., priority 2022, published 2026) one finds Cmax data, which are given here for 1 compound.

Like-named read-outs stand apart in the source and are kept apart here.

The nature of data set [1]: clinical. To be noted: human, in vivo.
For data set [2] the following is noted: Naproxen tablets; drug instructions NDA017581; cited from earlier work.

As usually defined, the Cmax is the highest concentration seen after dosing. `COc1ccc2cc([C@H](C)C(=O)O)ccc2c1` [Naproxen]: the results for the Cmax in data set [1] and in data set [2] were 423 µM and 97.4 µg/mL, respectively.
